Here are results for one substance from publication doi:10.1101/2022.06.22.497213.

No constants are given. Whether binding was seen depends on the method and setting. A result given as binding can be weak or reduced; the word gives no strength. Where a sequence is shown, tags or fusion partners need not be part of it.

This assay deals with T1, full-length FBF-2 fused to the Gal4 DNA-binding domain (C. elegans) (UniProt Q09312).
T1 sequence: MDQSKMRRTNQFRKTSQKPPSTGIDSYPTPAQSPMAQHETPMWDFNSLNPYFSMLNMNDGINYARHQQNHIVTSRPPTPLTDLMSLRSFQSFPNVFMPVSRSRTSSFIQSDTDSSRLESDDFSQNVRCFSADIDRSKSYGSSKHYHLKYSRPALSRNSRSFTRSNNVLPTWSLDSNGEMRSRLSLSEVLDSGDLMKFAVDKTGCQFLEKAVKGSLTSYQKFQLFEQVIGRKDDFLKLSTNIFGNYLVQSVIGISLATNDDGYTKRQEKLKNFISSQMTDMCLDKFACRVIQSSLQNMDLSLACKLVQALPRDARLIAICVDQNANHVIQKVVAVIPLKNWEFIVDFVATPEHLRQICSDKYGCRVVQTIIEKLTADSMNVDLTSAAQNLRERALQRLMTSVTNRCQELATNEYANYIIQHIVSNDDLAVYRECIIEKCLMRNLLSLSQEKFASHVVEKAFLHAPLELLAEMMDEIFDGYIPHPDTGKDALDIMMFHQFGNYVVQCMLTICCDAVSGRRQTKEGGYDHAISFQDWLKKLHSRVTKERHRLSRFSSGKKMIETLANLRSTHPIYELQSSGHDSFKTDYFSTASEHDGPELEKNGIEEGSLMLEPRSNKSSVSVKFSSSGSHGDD
Kind of assay: two-hybrid.

Regarding “SYGL-1 (prey of the two-hybrid library) (C. elegans)”, the binding result is on record as “binds”.
